The text below walks through data of PMC4824496.

Amino acid sequences for entries named in this document (tags omitted). Residues count along the entry.
UniProt O00206, residues 24-839: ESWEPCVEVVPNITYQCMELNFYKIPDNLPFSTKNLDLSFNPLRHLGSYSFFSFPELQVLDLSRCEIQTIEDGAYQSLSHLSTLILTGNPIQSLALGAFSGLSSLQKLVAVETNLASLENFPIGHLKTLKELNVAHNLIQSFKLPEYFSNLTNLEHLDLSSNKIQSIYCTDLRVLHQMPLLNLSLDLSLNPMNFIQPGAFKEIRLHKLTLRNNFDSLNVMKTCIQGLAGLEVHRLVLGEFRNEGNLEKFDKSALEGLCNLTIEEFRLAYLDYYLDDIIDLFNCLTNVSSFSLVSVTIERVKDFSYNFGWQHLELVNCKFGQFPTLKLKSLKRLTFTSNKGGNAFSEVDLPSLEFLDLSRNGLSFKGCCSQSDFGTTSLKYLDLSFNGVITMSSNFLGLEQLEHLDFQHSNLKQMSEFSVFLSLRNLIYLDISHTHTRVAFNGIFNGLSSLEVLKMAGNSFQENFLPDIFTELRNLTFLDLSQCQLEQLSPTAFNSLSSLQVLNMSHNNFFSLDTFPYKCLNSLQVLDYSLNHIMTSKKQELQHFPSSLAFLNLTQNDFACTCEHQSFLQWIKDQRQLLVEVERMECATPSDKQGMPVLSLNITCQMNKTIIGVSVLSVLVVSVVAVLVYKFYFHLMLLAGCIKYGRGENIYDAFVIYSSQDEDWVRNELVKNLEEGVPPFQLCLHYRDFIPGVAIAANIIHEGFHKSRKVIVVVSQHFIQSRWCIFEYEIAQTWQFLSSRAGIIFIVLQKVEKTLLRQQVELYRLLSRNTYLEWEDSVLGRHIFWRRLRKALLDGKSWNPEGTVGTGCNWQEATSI
UniProt P06733: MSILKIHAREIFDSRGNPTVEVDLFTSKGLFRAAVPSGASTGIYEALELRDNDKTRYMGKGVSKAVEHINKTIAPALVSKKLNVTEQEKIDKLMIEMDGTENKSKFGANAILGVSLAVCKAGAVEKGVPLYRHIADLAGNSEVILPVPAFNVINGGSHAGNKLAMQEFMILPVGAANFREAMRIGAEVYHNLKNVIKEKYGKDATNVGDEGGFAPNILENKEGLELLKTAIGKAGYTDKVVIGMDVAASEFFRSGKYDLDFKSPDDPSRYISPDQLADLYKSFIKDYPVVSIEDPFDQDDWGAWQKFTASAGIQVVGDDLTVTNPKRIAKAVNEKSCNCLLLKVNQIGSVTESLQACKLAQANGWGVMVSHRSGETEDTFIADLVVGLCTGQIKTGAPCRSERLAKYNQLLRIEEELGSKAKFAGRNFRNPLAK

The target in the assay is Human TLR4 on HEK-Blue hTLR4 cells (human) (UniProt O00206). Briefly: flow cytometry on cells; competitive binding assay: 1.10^6 HEK-Blue hTLR4 cells for 20 minutes at 4 °C with sucrose (1 mg) and ENO1 (25 μg, 500 μg or 2 mg), then 55 μg FITC-labelled LPS and 10 μl APC-labelled anti-TLR4 antibody for 20 minutes at 4 °C; only the binder purified. (In general: Flow cytometry measures light scatter and fluorescence of single cells or particles in a stream.)

These are yes or no findings as the source states them, for the method shown. Some entries that bind do so weakly or less than the wild type.

For “Human recombinant alpha-enolase (ENO1) (from UniProt P06733 1-434)”, the binding entry is “binds”.
